Measured values reported in publication PMC13390769.
No constants are given. Whether binding was seen depends on the method and setting. For some assays here: In cells and extracts the contact can be indirect. Some binding calls cover weakened binding; strength is not graded here.

Protein sequences, listed by entry. Tags and fused reporters are not part of them. Lines headed by an entry give the natural chain unless they say otherwise; changes in a name come on top. Chains listed by the source or under a name are the forms on record and can include a tag or linker.
Capicua short isoform (CIC-S), mouse, endogenous (Q924A2-2, form named): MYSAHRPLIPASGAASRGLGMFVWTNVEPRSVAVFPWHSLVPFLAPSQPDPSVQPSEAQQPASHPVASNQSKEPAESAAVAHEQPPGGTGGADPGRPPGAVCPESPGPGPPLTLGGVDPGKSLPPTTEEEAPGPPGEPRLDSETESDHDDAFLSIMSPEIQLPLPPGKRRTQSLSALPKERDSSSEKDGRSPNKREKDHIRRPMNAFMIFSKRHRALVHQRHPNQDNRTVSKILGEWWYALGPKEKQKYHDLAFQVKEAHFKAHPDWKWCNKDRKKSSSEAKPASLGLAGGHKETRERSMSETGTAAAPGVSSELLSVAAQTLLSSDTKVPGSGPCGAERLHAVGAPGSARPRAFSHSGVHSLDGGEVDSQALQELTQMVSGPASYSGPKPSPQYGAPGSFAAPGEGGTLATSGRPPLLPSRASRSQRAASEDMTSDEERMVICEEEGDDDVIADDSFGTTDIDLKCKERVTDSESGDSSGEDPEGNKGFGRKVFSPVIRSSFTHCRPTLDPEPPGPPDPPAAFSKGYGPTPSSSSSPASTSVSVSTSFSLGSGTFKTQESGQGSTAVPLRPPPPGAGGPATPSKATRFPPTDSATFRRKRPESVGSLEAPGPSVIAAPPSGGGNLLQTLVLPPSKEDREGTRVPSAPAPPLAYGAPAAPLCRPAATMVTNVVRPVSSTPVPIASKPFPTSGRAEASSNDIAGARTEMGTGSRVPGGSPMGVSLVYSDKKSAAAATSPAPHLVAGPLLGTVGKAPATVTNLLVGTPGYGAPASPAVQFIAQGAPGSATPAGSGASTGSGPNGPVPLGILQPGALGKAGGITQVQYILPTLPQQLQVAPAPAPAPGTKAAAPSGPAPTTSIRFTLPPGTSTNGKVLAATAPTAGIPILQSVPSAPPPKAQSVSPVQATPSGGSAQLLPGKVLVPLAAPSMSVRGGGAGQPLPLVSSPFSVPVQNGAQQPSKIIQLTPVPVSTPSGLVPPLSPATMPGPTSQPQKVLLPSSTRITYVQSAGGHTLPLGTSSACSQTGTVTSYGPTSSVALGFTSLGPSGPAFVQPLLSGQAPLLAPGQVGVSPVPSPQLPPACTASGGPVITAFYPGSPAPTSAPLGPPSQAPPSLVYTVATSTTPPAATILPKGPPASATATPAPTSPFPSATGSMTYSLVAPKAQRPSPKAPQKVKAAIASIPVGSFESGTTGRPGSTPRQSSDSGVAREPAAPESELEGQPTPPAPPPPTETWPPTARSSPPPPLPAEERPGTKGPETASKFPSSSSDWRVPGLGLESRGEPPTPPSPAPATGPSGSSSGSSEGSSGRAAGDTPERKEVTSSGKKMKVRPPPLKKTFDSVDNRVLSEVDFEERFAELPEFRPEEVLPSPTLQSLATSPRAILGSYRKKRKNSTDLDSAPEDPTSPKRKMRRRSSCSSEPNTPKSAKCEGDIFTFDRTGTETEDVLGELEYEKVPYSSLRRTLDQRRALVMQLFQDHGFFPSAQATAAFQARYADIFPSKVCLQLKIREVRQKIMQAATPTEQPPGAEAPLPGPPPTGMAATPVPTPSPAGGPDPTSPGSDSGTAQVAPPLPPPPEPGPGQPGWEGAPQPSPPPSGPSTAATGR

Columns and labels:
[1] = biological target: T1, Ataxin-1-like (ATXN1L), mouse, endogenous (mouse (endogenous in mouse brain tissue)) (UniProt P0C7T6); assay: SEC; Superose 6 10/300 GL, 4°C, 50 mM Tris pH 8.0, 50 mM NaCl, 0.1% Triton X-100; cortex extracts of 2–3 month old WT, Cic-S-KO and Cic-L-KO mice; 1 mL fractions immunoblotted for CIC, ATXN1, ATXN1L
T1 sequence: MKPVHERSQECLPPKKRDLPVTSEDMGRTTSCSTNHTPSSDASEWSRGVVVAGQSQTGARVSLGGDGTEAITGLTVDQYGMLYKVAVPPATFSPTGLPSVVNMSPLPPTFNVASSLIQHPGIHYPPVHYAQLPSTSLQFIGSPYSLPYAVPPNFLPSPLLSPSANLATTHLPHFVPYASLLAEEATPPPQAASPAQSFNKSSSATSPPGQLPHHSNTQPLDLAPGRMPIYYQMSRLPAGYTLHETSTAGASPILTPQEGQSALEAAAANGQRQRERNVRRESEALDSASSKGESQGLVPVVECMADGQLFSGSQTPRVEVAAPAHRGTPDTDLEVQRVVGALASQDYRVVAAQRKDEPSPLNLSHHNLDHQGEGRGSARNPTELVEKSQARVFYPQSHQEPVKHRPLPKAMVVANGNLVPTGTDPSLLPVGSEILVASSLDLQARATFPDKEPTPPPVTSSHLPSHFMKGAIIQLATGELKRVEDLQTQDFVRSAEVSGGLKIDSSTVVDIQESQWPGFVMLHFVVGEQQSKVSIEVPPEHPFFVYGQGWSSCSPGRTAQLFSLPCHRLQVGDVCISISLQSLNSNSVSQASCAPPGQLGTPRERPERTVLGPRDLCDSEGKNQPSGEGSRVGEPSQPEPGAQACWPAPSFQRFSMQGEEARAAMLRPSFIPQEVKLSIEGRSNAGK

[2] = biological target: T1, Ataxin-1-like (ATXN1L), mouse, endogenous (mouse (endogenous in mouse brain tissue)); assay: co-IP; cortex lysate of 12 week old WT mice (NEMT buffer or 75 mM NaCl, 5 mM MgCl2, 50 mM Tris-HCl pH 8.0, 0.5% Triton X-100); IP with anti-ATXN1 (534) or anti-ATXN1L (881) on Protein G Dynabeads, 2–3 h at 4°C; blot for CIC
[3] = biological target: T1, Ataxin-1-like (ATXN1L), mouse, endogenous (mouse (endogenous in mouse brain tissue)); assay: SEC; Superose 6 10/300 GL, 4°C, 50 mM Tris pH 8.0, 50 mM NaCl, 0.1% Triton X-100; cerebellum extracts of 2–3 month old WT, Cic-S-KO and Cic-L-KO mice; 1 mL fractions immunoblotted for CIC, ATXN1, ATXN1L

Substance	binding [1]	binding [2]	binding [3]
Capicua long isoform (CIC-L), mouse, endogenous (from UniProt Q924A2-4 1-2510)	binds	binds	–
Capicua short isoform (CIC-S), mouse, endogenous (from UniProt Q924A2-2 1-1604)	binds	binds	binds
